Experimental data: patent US11723946B2, “Methods for regulating transcription of multiple genes and expression of multiple targets” (CHINA MEDICAL UNIVERSITY, priority 2014, dated 2023)

Assay: Fat accumulation in genetic deficient mice with massive abdominal fat
Assay type: in vivo
Procedure: The mice were divided into control group and experimental group. […] In addition, the mice in the control group were peritoneally injections with 100 ul of PBS.
During the treatment period, the body weight and dietary intake of the mice were recorded at the regular time points. After the treatment, the gross views of whole animals were recorded by photographing. In the following, the fat pads of the mice were collected for the measurement of fat pad weight. The histological examination was performed to determine the number and size of the adipocytes in the mice of the both groups. Furthermore, the percentage of body fat was calculated according the formulation: (fat weight/body weight)×100%, and shown in table 4.

B1: present polypeptide: polypeptide comprising the amino acid sequence of SEQ ID No. 1; made by peptide synthesis, recombinant expression or extraction from Momordica charantia (peptide, listed as Artificial synthsis)
chain: SRCQGKSSWPQLVGSTGAAAKAWIERENPRVRAVIIKVGSGATKDFRCDRVRVWVTERGIVARPPTIG
Which Average dietary intake (Experimental mice, 2.5 nmol/kg peritoneal twice a week, 4 weeks, control 0.78 ± 0.22) does the source give for B1 here?
Its Average dietary intake is 0.88 ± 0.17 g/day/mice.

What about the “dietary intake during the treatment period compared with control group” value (experimental group vs control group, in words) of the same molecule?
The value was “no obvious difference”.
